Source: patent US20250277208A1, “Method of Peptide Library Construction and Peptides Thereof” (Alcamena Stem Cell Therapeutics, LLC, priority 2024, published 2025)
Results are given in words; binding and its absence hold for the method and conditions named.

Protein sequences, listed by entry. Tags and fused reporters are not part of them. Residues count along the entry.
UniProt P05231, residues 30-212: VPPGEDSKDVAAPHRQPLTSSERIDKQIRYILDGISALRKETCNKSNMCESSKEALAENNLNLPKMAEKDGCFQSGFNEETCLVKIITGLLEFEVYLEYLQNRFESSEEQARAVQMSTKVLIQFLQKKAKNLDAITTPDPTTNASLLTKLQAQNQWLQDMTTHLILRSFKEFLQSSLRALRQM

Biological target: Biotinylated recombinant human IL-6 (human) (UniProt P05231)
Assay: SPR (Biacore), IL-6 on chip

| Binder | binding |
| --- | --- |
| SVRDPHNRMCHIVG [Peptide 22] | no binding (tested: >10 µM) |
| SVRIYLRRMCHIVG [Peptide 20] | no binding (tested: >10 µM) |
| SVRDLPRIMCHIVG [Peptide 31] | no binding (tested: >10 µM) |
| LEIRDLLRRMCHIVG [Peptide 26] | no binding (tested: >10 µM) |
| SVHIHLRRMCHIVG [Peptide 34] | no binding (tested: >10 µM) |
| SVRDLLNRICHIVG [Peptide 21] | no binding (tested: >10 µM) |
| SVRDLLRMFCHIVG [Peptide 23] | no binding (tested: >10 µM) |
| LGHRDLLRRMCHIVG [Peptide 29] | no binding (tested: >10 µM) |
| SVRDLHKMMCHIVG [Peptide 25] | no binding (tested: >10 µM) |

More lines, now with the values ahead:

| binding | Binder |
| --- | --- |
| no binding (tested: >10 µM) | SNYTLLRRMCHIVG [Peptide 36] |
| no binding (tested: >10 µM) | SVRDLLHGRCHIVG [Peptide 40] |
| no binding (tested: >10 µM) | SVRDLLRRMCHPRLG [Peptide 46] |
| no binding (tested: >10 µM) | NFRRDLLRRMCHIVG [Peptide 41] |
| no binding (tested: >10 µM) | GNSRDLLRRMCHIVG [Peptide 42] |
